Laboratory results published in patent publication US20030195187A1, “Guanidino compounds” (CHIRON CORPORATION, priority 2002, published 2003).
Some of these results come from one statement about several compounds together.

Protein sequences, listed by entry. Tags and fused reporters are not part of them.
UniProt P32245, whole entry, species assumed: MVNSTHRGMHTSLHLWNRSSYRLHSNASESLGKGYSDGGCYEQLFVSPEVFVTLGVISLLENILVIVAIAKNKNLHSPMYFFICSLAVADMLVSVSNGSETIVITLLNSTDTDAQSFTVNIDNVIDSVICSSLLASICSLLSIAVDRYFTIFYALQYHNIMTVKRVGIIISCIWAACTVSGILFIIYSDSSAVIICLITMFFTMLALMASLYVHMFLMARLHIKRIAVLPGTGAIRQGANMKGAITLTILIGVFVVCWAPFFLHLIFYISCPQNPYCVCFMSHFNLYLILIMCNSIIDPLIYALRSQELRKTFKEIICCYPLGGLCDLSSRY

Target: MC4-R (Homo sapiens, UniProt P32245)
Test: cAMP Scintillation Proximity Assay in cells expressing MC4-R
Assay type: cell-based
Conditions: intercellular cAMP measured by SPA kit

## (3S)-N-{5-[7-(1,1-dimethylphenyl)-3,4-dihydroisoquinolin-1-yl]pyridin-2-yl}-3-methyl-N′-[(1S,2S,3R,5R)-2,6,6-trimethylbicyclo[3.1.1]hept-3-yl]piperazine-1-carboximidamide [Example 41]
  −log EC50: above 3
